Measurements reported in PubChem BioAssay AID1224830 (NIAID, 2016)

Test: 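Host factors that control LPS-induced TNF expression in human macrophages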 (primary screen)
System: human THP-1 monocytic leukaemia cells, TNF dual-luciferase reporter clone, PMA-differentiated to macrophage-like cells
Reagent: siRNA pool against human genes, 50 nM
Timing: LPS for 4 h, given about 3 days after siRNA transfection
Conditions: bacterial LPS (TLR4 ligand), 10 ng/ml
Measured: 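TNF firefly reporter luminescence divided by renilla, normalised to the plate median, then turned into a robust z-score for each replicate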
Scale: TNF reporter robust z-score: higher = stronger TNF reporter response to LPS
Hit rule: 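a well is active when its z-score exceeds 2.8 or falls below -1.5; control wells carry no call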
Here is one part, drawn at random, of about 18,000 reagents. Of all reagents, about 2,900 (16%) are marked active. 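Calls are made per well; low scores hint the gene aids the LPS response, high scores that it dampens it.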 Entries without a mark were called inactive. Repeated entries: four replicate wells of each siRNA pool.

TMEM132A (transmembrane protein 132A) — TNF reporter robust z-score = -1.66 (active)
TMEM132A (transmembrane protein 132A) — TNF reporter robust z-score = -1.02
TMEM132A (transmembrane protein 132A) — TNF reporter robust z-score = -0.91
TMEM132A (transmembrane protein 132A) — TNF reporter robust z-score = -1.11
TNFSF9 (TNF superfamily member 9) — TNF reporter robust z-score = 2.83 (active)
TNFSF9 (TNF superfamily member 9) — TNF reporter robust z-score = 2.45
TNFSF9 (TNF superfamily member 9) — TNF reporter robust z-score = 2.92 (active)
TNFSF9 (TNF superfamily member 9) — TNF reporter robust z-score = 2.73
TLL2 (tolloid like 2) — TNF reporter robust z-score = 0.28
TLL2 (tolloid like 2) — TNF reporter robust z-score = 0.62
TLL2 (tolloid like 2) — TNF reporter robust z-score = 0.51
TLL2 (tolloid like 2) — TNF reporter robust z-score = -0.99
PPP6C (protein phosphatase 6 catalytic subunit) — TNF reporter robust z-score = -0.19
PPP6C (protein phosphatase 6 catalytic subunit) — TNF reporter robust z-score = 0.35
PPP6C (protein phosphatase 6 catalytic subunit) — TNF reporter robust z-score = 0.57
PPP6C (protein phosphatase 6 catalytic subunit) — TNF reporter robust z-score = 0.55
LEP (leptin) — TNF reporter robust z-score = -1.08
LEP (leptin) — TNF reporter robust z-score = 1.97
LEP (leptin) — TNF reporter robust z-score = 0.45
LEP (leptin) — TNF reporter robust z-score = 0.89
ANXA4 (annexin A4) — TNF reporter robust z-score = -1.13
ANXA4 (annexin A4) — TNF reporter robust z-score = -0.14
ANXA4 (annexin A4) — TNF reporter robust z-score = 0.65
ANXA4 (annexin A4) — TNF reporter robust z-score = -0.06
GPATCH11 (G-patch domain containing 11) — TNF reporter robust z-score = -1.06
GPATCH11 (G-patch domain containing 11) — TNF reporter robust z-score = -1.07
GPATCH11 (G-patch domain containing 11) — TNF reporter robust z-score = -1.62 (active)
GPATCH11 (G-patch domain containing 11) — TNF reporter robust z-score = -1.25
TSSK4 (testis specific serine kinase 4) — TNF reporter robust z-score = -0.88
TSSK4 (testis specific serine kinase 4) — TNF reporter robust z-score = -0.44
TSSK4 (testis specific serine kinase 4) — TNF reporter robust z-score = -1.17
TSSK4 (testis specific serine kinase 4) — TNF reporter robust z-score = 1.12
KRTAP3-1 (keratin associated protein 3-1) — TNF reporter robust z-score = -1.65 (active)
KRTAP3-1 (keratin associated protein 3-1) — TNF reporter robust z-score = -1.82 (active)
KRTAP3-1 (keratin associated protein 3-1) — TNF reporter robust z-score = -1.85 (active)
KRTAP3-1 (keratin associated protein 3-1) — TNF reporter robust z-score = -1.71 (active)
IQGAP1 (IQ motif containing GTPase activating protein 1) — TNF reporter robust z-score = -0.77
IQGAP1 (IQ motif containing GTPase activating protein 1) — TNF reporter robust z-score = -0.57
IQGAP1 (IQ motif containing GTPase activating protein 1) — TNF reporter robust z-score = -0.54
IQGAP1 (IQ motif containing GTPase activating protein 1) — TNF reporter robust z-score = -0.9
FAM167A (family with sequence similarity 167 member A) — TNF reporter robust z-score = -0.2
FAM167A (family with sequence similarity 167 member A) — TNF reporter robust z-score = 0.39
FAM167A (family with sequence similarity 167 member A) — TNF reporter robust z-score = -0.61
FAM167A (family with sequence similarity 167 member A) — TNF reporter robust z-score = -0.67
ROGDI (rogdi atypical leucine zipper) — TNF reporter robust z-score = 0.41
ROGDI (rogdi atypical leucine zipper) — TNF reporter robust z-score = 0.88
ROGDI (rogdi atypical leucine zipper) — TNF reporter robust z-score = 1.55
ROGDI (rogdi atypical leucine zipper) — TNF reporter robust z-score = 0.73

Targets above whose target name starts with G or g:
GPATCH11 (G-patch domain containing 11) — TNF reporter robust z-score = -1.06
GPATCH11 (G-patch domain containing 11) — TNF reporter robust z-score = -1.07
GPATCH11 (G-patch domain containing 11) — TNF reporter robust z-score = -1.62 (active)
GPATCH11 (G-patch domain containing 11) — TNF reporter robust z-score = -1.25
